For one substance, binding results are on record in PMC12724269.

By UniProt entry, the sequences of proteins in these tests, tags left out. Where a name states a change or a piece, a line headed by the entry shows the natural chain unless it says otherwise.
UniProt P67775: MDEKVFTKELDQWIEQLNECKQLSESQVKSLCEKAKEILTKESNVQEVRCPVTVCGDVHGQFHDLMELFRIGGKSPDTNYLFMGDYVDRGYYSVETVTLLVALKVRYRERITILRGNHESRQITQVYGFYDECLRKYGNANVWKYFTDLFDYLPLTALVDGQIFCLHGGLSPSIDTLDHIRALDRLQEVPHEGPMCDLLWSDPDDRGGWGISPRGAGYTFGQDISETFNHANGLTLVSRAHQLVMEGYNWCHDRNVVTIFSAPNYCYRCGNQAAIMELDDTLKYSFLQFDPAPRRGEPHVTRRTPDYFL

Common to all, as to assay: co-IP; ANKLE2-3XFLAG complexes immunoprecipitated from lysates of doxycycline-treated transduced HeLa cells on Dynabead Protein G beads conjugated to mouse anti-FLAG, overnight at 4°C; lysis buffer 50 mM Tris-HCl pH 7.4, 150 mM NaCl, 1% Triton X-100, protease and phosphatase inhibitors, nuclease; blots for PP2A and total BAF
For test [1], the target named is T1, full-length ANKLE2-3XFLAG (Ankyrin repeat and LEM domain-containing protein 2) (human) (UniProt Q86XL3).
T1 sequence: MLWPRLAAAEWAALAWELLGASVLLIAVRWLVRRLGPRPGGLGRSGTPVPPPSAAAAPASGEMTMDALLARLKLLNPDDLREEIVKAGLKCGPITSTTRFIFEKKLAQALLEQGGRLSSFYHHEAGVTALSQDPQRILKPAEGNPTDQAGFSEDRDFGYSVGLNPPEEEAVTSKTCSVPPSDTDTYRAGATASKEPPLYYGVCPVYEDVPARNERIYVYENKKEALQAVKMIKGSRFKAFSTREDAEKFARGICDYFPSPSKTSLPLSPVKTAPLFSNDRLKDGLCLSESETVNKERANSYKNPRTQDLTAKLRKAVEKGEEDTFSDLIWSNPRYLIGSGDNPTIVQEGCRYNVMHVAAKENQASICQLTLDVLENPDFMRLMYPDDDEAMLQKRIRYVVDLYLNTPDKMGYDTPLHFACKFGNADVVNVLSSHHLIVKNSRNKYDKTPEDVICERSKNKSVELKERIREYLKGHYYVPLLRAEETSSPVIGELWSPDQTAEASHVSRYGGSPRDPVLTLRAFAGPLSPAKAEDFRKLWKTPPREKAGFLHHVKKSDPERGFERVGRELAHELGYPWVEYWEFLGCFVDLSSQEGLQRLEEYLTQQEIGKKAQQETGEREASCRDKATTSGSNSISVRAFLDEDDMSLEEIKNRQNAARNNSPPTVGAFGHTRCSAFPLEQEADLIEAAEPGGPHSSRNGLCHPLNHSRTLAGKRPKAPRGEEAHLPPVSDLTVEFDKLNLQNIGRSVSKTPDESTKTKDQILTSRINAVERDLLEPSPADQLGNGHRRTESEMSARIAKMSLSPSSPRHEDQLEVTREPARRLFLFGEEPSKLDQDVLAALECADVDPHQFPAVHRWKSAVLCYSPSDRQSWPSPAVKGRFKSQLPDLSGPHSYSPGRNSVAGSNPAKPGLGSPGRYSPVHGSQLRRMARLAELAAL

Test [2] deals with T2, Δ2-117-ANKLE2-3XFLAG (human) (UniProt Q86XL3).
T2 sequence: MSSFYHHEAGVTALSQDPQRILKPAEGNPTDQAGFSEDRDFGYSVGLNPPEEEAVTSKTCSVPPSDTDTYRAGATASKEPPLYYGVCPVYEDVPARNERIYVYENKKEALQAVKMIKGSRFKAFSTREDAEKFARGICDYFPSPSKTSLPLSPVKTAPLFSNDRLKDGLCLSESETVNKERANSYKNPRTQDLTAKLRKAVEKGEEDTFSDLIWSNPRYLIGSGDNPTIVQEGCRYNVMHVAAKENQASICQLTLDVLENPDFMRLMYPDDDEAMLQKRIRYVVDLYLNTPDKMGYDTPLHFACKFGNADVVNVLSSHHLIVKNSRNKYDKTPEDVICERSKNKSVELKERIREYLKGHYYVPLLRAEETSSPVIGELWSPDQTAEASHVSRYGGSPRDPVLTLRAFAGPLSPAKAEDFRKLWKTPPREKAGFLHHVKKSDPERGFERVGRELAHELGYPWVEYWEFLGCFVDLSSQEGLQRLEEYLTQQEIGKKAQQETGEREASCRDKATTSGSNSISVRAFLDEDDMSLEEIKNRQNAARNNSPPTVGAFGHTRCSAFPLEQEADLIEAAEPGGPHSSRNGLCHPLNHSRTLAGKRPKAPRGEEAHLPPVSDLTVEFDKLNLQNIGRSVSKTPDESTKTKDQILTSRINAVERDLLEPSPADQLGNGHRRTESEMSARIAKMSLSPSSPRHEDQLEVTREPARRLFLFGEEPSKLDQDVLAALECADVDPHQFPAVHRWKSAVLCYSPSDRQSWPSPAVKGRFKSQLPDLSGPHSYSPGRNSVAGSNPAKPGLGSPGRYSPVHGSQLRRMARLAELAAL

The target in test [3] is T3, Δ2-252-ANKLE2-3XFLAG (human) (UniProt Q86XL3).
T3 sequence: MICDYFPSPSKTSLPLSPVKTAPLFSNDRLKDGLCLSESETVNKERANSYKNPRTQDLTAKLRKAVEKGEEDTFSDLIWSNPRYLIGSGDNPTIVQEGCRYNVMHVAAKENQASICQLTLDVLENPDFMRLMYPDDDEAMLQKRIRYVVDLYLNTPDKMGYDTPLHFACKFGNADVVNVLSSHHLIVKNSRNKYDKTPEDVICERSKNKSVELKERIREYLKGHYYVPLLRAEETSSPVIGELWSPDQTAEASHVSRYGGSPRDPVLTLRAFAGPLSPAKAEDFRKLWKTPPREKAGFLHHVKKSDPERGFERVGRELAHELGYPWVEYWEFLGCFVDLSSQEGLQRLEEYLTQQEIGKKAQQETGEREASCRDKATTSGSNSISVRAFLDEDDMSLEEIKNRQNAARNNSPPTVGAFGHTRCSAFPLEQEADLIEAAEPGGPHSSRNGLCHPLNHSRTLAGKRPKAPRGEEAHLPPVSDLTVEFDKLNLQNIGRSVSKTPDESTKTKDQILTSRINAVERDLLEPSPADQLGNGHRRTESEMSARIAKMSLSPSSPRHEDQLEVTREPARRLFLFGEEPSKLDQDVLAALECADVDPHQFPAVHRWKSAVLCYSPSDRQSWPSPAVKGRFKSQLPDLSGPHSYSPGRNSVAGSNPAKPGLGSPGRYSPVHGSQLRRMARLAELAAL

Test [4] deals with T4, Δ2-53-ANKLE2-3XFLAG (human) (UniProt Q86XL3).
T4 sequence: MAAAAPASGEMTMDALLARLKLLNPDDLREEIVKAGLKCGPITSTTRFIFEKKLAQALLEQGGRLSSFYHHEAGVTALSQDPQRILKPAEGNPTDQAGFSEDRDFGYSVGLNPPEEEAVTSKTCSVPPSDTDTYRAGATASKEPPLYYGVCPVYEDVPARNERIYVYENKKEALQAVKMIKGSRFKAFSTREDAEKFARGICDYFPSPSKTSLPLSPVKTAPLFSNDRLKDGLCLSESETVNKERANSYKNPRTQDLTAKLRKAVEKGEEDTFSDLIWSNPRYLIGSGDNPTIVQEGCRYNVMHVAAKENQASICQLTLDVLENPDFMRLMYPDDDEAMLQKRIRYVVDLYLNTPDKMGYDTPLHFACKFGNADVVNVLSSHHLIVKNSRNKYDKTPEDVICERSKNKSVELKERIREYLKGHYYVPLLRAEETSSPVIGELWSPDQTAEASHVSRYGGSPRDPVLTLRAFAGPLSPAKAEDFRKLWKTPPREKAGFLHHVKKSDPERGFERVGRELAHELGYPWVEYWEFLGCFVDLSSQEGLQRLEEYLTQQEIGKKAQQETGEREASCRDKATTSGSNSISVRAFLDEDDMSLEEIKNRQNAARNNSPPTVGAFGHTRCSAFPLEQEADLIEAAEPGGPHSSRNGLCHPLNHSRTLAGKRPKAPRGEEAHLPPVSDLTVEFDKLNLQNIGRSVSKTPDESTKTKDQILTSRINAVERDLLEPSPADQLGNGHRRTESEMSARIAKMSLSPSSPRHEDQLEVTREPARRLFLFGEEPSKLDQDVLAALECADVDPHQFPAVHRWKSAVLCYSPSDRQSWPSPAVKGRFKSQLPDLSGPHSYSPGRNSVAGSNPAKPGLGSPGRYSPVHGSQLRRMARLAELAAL

For test [5], the target named is T5, Δ2-63-ANKLE2-3XFLAG (human) (UniProt Q86XL3).
T5 sequence: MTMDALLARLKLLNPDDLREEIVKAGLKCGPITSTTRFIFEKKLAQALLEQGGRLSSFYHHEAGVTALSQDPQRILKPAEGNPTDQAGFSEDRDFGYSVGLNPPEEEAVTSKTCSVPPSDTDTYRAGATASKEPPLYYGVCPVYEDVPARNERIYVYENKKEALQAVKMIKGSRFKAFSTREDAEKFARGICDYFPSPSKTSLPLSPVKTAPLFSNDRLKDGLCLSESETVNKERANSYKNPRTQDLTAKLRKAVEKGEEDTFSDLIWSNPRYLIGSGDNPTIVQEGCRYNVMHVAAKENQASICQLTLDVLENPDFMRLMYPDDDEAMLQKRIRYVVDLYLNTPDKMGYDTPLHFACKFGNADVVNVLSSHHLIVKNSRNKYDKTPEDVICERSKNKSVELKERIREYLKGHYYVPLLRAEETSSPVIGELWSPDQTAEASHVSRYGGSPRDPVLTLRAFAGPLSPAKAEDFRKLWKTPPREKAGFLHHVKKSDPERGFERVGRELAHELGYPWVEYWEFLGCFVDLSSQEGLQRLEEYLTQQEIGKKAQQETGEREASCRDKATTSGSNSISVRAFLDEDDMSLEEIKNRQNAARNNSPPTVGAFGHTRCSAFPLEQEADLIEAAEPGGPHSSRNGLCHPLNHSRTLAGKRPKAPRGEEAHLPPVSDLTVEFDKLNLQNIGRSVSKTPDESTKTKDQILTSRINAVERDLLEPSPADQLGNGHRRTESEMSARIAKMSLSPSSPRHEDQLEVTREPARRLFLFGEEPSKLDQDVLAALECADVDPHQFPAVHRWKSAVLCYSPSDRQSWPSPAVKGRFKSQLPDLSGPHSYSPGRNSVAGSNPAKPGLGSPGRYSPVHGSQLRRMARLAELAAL

These are yes or no findings as the source states them, for the method shown. Binding seen in cells or lysates may run through a third protein. For some assays here: Binding can be weak; no strength is given. Sequences can lack the tags named with a protein.

For “serine/threonine protein phosphatase 2A (PP2A) (from UniProt P67775) (enzyme)”, the binding entry in test [1] is given as “binds”; in test [2], “binds”; in test [3] it was “no binding”; in test [4], “binds”; in test [5], “binds”.
